From PMC5556019, “Targeting Apolipoprotein E/Amyloid β Binding by Peptoid CPO_Aβ17-21 P Ameliorates Alzheimer’s Disease Related Pathology and Cognitive Decline” (Scientific Reports, 2017)
Numbered stars: 1 amine (or outer) side, 2 acyl side, 3 side chain; on linkers, the order of the positions; unused ones are H or OH. Bridge positions count the residues as written; N and C are the ends. Square brackets hold non-standard residues; d marks the D form. Peptide text beside a SMILES is read from it. ξ: configuration not given here. N(CH2CH2CO)Gly = O=C(CN(CCC(=O)[*:3])[*:1])[*:2]; Nphe = O=C(O)CNCc1ccccc1; Nleu = CC(C)CNCC(=O)O; ξP = O=C(O)C1CCCN1; Sar = CNCC(=O)O

System: APP/PS1 Tg mice
Test: Sensorimotor tests (rotarod, traverse beam, locomotor activity)
Type: in vivo
Settings: 0.2 mg per mouse i.p. twice weekly for 4 months; p > 0.05

CC(C)CN1CC(=O)N2CCCC2C(=O)N(Cc2ccccc2)CC(=O)N(Cc2ccccc2)CC(=O)N(C)CC(=O)N(CC(N)=O)CCC1=O (stereo not drawn) [CPO_Aβ17-21 P] ([Nleu][ξP][Nphe][Nphe][Sar][N(CH2CH2CO)Gly]-NH2; lactam N-6)
no significant differences: Open field: distance traveled, resting time, maximum velocity, average speed, treated versus vehicle | Rotarod, treated versus vehicle | Traverse beam, treated versus vehicle
